Data as given in US6071710A, “Antikinin compounds and uses thereof” (MUSC Foundation for Research Development, priority 1997, dated 2000).
Not every detail of the peptide structures is certain; ends, links or a residue may be inferred. Some entries repeat one wording, which the source may state once for all of them. Where no end group is shown, it is not given here.

Legend:
[1] = system: spontaneously hypertensive rats; test: Mean systemic arterial blood pressure after brain injection of BK fragments; format: in vivo, rat; conditions: hypertensive anesthetized rats, preliminary for BK1-7, BK2-7
Description: Experiments were performed on male spontaneously hypertensive rats weighing 250-350 g. Anesthesia and surgical procedures are described (15-17). Following the surgical procedures, animals were allowed to stabilize for 30 minutes. Injections were then made unilaterally into the rostral ventral lateral medulla oblongata. In any given experiment, not more than four doses of the BK fragments were given. Successive injections were alternated between sides after an intervening period of 20 minutes. Mean arterial pressure was measured from a femoral arterial line with a transducer (Statham Laboratories, Inc. Hato Rey, Puerto Rico) and recorded using a polygraph (Grass Instrument Co., Quincy, Mass.). Values shown are the mean changes ± sem.

[2] = system: endotoxin (LPS)-treated anesthetized rats; test: Endotoxin (LPS) shock in anesthetized rats; format: in vivo, rat; conditions: 1 μg/kg IV followed by 143 ng/kg/hr, one hour prior to LPS (12 mg/kg IV); vs vehicle/LPS
Description: Male Sprague-Dawley rats (220-480 g) were anesthetized with inactin (120 mg/kg, IP). The trachea was cannulated and the animal was allowed to breath 100% O2. Polyvinyl cannulas (Norton Plastics, Akron, Ohio) were inserted into the jugular vein and the femoral artery for the purposes of infusion of saline and agents and for monitoring of blood pressure, respectively, as described for FIGS. 2 and 3. Heart rate was monitored by tachograph and body temperature was maintained at 37° C. After a 2 hour period of equilibration with saline infusion (0.25 ml/hr), peptides (1 μg/kg followed by 143 ng/kg/hr) or saline were administered, followed one hour later by LPS (12 mg/kg). Time of death was taken as time after administration of LPS when there was no longer a detectable ECG. Values shown are the mean ± sem from the indicated number of studies and were compared using either t-test (FIG. 12A) or ANOVA with Fisher's post-hoc t-test (FIG. 12B).

| Substance | systemic mean arterial pressure (MAP) response [1] | survival time [2] |
| --- | --- | --- |
| RPPGFSP [BK1-7] | affect systemic blood pressure |  |
| PRGFP [scrambled pentapeptide, reference compound] |  | did not prolong life |
| FGPPR [FGPPR] |  | prolonged cardiovascular integrity and life |
